Results: PMC9825174
These are yes or no findings as the source states them, for the method shown. Some binding calls cover weakened binding; strength is not graded here.

Chains of the proteins cited; added tags and fusions are not shown.
UniProt Q16531: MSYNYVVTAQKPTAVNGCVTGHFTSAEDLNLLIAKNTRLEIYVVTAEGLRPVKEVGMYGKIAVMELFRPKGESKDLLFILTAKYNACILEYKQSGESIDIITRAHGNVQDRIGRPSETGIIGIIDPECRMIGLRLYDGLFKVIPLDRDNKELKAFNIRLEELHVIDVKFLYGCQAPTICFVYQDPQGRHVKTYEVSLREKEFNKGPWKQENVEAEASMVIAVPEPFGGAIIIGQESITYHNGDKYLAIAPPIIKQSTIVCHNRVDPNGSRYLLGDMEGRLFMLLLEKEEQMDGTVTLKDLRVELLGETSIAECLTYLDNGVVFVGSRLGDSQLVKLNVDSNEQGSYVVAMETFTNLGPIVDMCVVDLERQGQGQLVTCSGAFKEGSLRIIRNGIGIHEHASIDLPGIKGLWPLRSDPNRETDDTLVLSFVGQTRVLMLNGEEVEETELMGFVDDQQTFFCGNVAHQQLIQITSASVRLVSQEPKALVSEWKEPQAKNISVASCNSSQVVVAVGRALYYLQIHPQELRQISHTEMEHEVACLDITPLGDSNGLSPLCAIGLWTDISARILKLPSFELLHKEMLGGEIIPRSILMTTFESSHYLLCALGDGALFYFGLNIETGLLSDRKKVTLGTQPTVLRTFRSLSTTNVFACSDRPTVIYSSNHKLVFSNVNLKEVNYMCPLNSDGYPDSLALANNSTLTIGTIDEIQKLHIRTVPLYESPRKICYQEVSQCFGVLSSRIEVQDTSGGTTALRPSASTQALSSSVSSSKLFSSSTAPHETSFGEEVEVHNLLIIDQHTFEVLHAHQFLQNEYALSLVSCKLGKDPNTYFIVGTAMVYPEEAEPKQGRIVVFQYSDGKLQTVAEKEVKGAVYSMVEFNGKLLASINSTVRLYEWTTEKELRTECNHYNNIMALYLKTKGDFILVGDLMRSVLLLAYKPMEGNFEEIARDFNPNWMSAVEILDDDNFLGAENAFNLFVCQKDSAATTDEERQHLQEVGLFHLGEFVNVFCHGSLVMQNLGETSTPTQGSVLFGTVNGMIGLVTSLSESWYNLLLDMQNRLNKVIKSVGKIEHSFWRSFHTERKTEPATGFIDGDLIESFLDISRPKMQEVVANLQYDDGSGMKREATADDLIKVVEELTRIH
UniProt Q92466: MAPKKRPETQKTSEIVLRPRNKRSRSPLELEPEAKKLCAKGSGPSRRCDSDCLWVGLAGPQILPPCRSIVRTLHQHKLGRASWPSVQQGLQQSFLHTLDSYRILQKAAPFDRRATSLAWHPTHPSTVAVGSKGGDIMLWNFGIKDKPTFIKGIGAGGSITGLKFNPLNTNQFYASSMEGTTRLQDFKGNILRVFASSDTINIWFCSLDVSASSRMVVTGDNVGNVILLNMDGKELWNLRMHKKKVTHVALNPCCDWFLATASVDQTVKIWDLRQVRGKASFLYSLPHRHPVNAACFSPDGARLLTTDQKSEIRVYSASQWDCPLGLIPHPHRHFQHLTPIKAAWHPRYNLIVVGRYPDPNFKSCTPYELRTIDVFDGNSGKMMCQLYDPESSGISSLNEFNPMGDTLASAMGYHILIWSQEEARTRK

Target: DDB1-His6 (UniProt Q16531)
Test: co-purification (Ni affinity, anti-FLAG affinity, SEC); DDB1-His6 and DDB2-Flag co-expressed in Sf9; His-Trap HP column, anti-FLAG M2 affinity gel, then HiLoad 16/60 Superdex 200 in 50 mM HEPES pH 7.5, 200 mM KCl, 1 mM EDTA, 2 mM DTT, 10% glycerol

For DDB2-Flag (from UniProt Q92466 1-427), the binding was “binds”.
